Test results as given in publication PMC11807462.
These are yes or no findings as the source states them, for the method shown. In cells and extracts the contact can be indirect. Binding calls can cover weak binding; strength is not graded here.

Target: T1, LGR5 (human) (UniProt O75473)
T1 sequence: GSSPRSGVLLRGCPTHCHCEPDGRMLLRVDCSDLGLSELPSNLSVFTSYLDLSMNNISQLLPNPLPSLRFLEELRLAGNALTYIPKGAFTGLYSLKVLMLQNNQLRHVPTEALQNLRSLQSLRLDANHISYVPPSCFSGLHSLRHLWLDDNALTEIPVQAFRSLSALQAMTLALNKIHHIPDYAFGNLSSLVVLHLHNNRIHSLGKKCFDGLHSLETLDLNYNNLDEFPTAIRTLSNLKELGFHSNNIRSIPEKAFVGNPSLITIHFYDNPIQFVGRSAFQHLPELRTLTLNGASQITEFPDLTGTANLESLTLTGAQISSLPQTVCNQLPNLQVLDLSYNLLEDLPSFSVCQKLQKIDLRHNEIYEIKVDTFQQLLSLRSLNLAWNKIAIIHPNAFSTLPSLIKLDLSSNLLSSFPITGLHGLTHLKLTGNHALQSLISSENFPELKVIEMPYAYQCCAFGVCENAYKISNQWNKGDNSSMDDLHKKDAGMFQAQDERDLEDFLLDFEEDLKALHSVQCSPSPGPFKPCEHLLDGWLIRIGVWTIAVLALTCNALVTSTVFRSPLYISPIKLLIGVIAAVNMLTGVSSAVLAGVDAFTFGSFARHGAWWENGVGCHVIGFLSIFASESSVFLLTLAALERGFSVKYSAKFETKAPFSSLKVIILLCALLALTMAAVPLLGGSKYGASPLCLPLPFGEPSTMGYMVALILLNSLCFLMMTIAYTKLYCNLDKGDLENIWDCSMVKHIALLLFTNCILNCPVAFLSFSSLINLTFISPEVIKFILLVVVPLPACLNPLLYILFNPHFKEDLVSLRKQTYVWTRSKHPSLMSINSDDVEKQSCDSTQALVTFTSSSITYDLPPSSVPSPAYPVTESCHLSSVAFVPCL
Test: co-IP; immunoprecipitation (IP) to confirm protein-protein interactions; no further details

For “isoform of Urotensin II (iUTS2) (ligand)”, the binding was “binds”.
